{"sequences": {"note": "The chains behind the UniProt entries cited, without tags or fusion partners.", "UniProt P34969, whole entry": "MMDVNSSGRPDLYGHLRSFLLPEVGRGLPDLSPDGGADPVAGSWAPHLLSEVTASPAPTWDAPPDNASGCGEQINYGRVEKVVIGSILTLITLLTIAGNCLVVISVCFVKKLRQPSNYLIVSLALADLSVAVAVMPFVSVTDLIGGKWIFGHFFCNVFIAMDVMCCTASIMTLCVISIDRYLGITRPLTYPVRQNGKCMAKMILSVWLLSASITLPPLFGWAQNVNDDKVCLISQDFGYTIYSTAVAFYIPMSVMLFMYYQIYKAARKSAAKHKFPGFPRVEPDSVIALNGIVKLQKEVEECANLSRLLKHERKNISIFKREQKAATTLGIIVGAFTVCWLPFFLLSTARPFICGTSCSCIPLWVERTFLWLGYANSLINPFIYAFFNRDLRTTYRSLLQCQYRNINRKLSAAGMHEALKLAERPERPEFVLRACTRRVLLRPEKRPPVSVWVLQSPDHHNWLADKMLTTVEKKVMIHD"}, "source": "paper PMC3052287", "about": "(Psychopharmacology, 2010)", "origin": "cited, not measured here", "biological_target": "h5-HT7 receptor (Homo sapiens, UniProt P34969)", "settings": "cited from earlier work"}
{"smiles": "CCN(CC)C(=O)N[C@H]1C=C2c3cccc4[nH]cc(c34)C[C@H]2N(C)C1", "note": "[lisuride]", "values": [{"measurement": "inactivation of the h5-HT7 receptor (loss of 5-HT-stimulated cAMP accumulation)", "result": "inactivate the h5-HT7 receptor"}]}
